In all, about 33,000 sequences were measured (“E-score (-0.5 to 0.5)”: median about -0.016, highest 2% from about 0.3 on). The list shows a part of the results.
What follows are sequences tested against T1, Yer184c (UniProt P39961) (assay: PBM E-score (8-mer binding enrichment) (E-score (-0.5 to 0.5)); higher = stronger / more preferred TF binding). Details: protein concentration: 100 nM; construct: GST-full length.
T1 sequence: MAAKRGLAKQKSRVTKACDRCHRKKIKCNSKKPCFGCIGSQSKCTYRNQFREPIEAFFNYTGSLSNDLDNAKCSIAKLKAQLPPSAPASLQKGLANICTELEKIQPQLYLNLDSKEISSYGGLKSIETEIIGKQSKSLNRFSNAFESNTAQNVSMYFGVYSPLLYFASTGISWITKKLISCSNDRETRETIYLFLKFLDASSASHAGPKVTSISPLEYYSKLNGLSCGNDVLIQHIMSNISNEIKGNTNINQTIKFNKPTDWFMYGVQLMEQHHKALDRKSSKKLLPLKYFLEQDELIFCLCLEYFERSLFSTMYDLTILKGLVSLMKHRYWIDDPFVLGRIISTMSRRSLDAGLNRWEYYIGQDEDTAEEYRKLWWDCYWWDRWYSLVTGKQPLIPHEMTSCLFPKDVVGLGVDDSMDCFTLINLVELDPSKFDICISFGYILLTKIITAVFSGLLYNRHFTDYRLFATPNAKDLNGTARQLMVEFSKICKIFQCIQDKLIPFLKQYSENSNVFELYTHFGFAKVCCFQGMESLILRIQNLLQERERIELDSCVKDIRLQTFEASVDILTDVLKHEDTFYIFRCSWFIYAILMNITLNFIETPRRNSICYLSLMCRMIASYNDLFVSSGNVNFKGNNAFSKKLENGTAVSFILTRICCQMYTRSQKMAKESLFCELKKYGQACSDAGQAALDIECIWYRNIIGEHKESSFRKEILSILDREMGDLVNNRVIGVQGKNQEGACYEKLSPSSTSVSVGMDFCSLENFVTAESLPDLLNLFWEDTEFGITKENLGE
In short: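 GST-tagged yeast TFs (full-length or DNA-binding domain) were made by PURExpress in vitro transcription/translation and applied at about 100-200 nM to universal all-10-mer Agilent arrays. The arrays were made double-stranded by primer extension, on fresh or once-stripped slides. Bound protein was detected with fluorescent anti-GST, and scans were normalised with masliner. Each ungapped eight-base word, pooled with its reverse complement, received an E-score (modified Wilcoxon-Mann-Whitney statistic) from the Universal PBM Analysis Suite.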

Sequence	PBM E-score
CGCTCGCA	0.233
AAAACAGA	0.101
CTGACGGC	0.00591
AATTACGC	-0.0695
AGGCAAAA	-0.0228
ATCACAGA	0.0351
AGCCAGAT	-0.0568
GGAACTAA	0.136
ACCGAGAG	0.147
AACGGACC	0.185
CCGAAGAG	0.243
GGGCGTGA	-0.0872
GCCGCTTA	0.155
TATACAAA	0.257
GTCGACAA	0.0101
CCAATGAG	-0.208
AGCTGTCG	-0.0677
ACAAGTTC	-0.0315
AGAAGGAA	-0.139
AGCGTTAA	-0.117
ACGTGTTA	0.0294
AGATAGCA	-0.0331
GACTTTAC	0.0813
CTAGGCGA	-0.151
ATTGTTCA	0.112

Sequence	PBM E-score
ACGGGAAC	0.152
CGATAGTA	-0.0758
CTGTTTGC	-0.0666
CTACATGA	-0.0436
CGATTGAA	0.0258
TAGCGCGA	0.0853
AGGCCACG	-0.158
ATCAGAGA	-0.113
AATCACTC	-0.131
CATTCTAA	0.204
ACGCACCA	0.00654
TACTATCA	0.162
ACCCGCGT	-0.0424
CATATACC	-0.104
GTTTCGCA	-0.0906
GGGGCAGA	-0.123
GAAGTGTC	0.135
ACTGAGTG	0.0663
AGGTTTCA	0.03
ACTAAGCA	-0.0402
CCTGCTGC	-0.143
AGTAGGAC	-0.121
TGCCACCA	-0.432
ACGTTAAG	-0.135
ACTGATAG	-0.00572

Sequence	PBM E-score
ACCTAAGC	-0.064
CGGATACC	0.206
AGATCAGA	-0.104
CGTTCTCC	-0.104
GGTGCTCA	-0.104
AATCTAGA	-0.127
CGGACCGC	0.104
AGAAGCAC	-0.123
ATCTAACG	0.111
AGCCGACT	-0.00308
TCTGGGCA	0.0692
ACAAACAG	0.0772
GATAAGAA	0.262
TGAAGACA	0.0218
CGCGCCGA	0.256
CCCGGCCA	0.209
AGCCGTAC	0.0662
CGAGCATC	-0.0678
AGAACGAA	0.0785
ACGTCCAC	-0.205
AGCATAAA	0.0593
GAACCAAA	-0.0175
AGCAGTCG	-0.112
AAAGGTAT	-0.0498
ACCGAAAT	0.218

Sequence	PBM E-score
AGCCACCC	-0.224
CAACTAAG	0.0457
GCTGCGCC	-0.221
TTACGTAA	-0.071
AGCCCTTC	-0.24
CAAGTCTC	-0.227
CAGCTGCA	-0.138
TAAAGTGA	0.12
ACGGTAAA	0.162
ACTCCAAG	-0.21
GCGGTCAA	0.0846
CCGCGGTC	0.205
AAGATAAT	0.243
GCCCTAGC	-0.162
CATATTTA	0.159
TCACGTCA	-0.0647
GTCTAGCA	-0.00436
TTTGCAAA	0.0482
AGTGGGGC	-0.45
GAAGTGCA	-0.0355
ACCTGCAG	-0.262
AACTGTCA	-0.0612
AGTTGCGA	-0.00944
AGCTAGTC	-0.11
CATCTCGC	-0.077

Sequence	PBM E-score
CCCTCGAG	-0.237
CCTATGAG	-0.206
AAGACGTC	-0.141
AGATGACG	-0.11
AGAGCGAC	-0.0903
AAAAACGC	0.166
GAGTTGCC	0.11
ACCCTTGA	-0.0356
ACAGTGTA	-0.0208
ACAATGCG	-0.0482
TCGGGTCA	0.242
CGCTATAA	0.0885
AGTTGTTA	0.076
ATCCGCCG	0.252
AAGCGTGT	-0.217
AGCCAGTG	-0.218
AACACTCT	0.0717
CCCTGCGG	-0.102
ACAATGTC	0.0746
AAAAGTGG	0.0777
CCAAATGC	-0.136
AGTACTAT	0.165
ATTACTCA	0.103
ACTATGCC	0.0643
CCCGATGA	0.131

Sequence	PBM E-score
TATGGCGA	-0.0993
ATAGAGAA	0.103
CAGTCAAA	0.0847
ACAGGCAC	-0.241
CGTGACTA	0.0856
CTAATCGA	0.155
ACTCTGAA	0.0196
AATACCGA	0.165
CTTACAGA	0.0561
AGCGCAGC	-0.0783
AGATAAGA	0.123
CAATGCAG	-0.0658
AGGAGCAT	-0.0221
AGTTAACC	-0.0162
CGAGACGC	-0.0192
AATACATT	0.122
CGCATAGA	-0.173
AAACGCTT	-0.0758
TCTTAACA	0.0228
CACTTGAA	-0.0318
CCCCCTTA	-0.348
AGCTTGAC	-0.156
GAATCACA	0.0701
CCCTACTC	-0.00528
AGTGACAC	-0.00725

Given with bars between the fields: entries from further up.
Sequence | PBM E-score
TCTGGGCA | 0.0692
ACAAACAG | 0.0772
GATAAGAA | 0.262
TGAAGACA | 0.0218
CGCGCCGA | 0.256
CCCGGCCA | 0.209
AGCCGTAC | 0.0662

More entries follow:

Sequence	PBM E-score
AATCTACA	0.0892
GGCGTTAC	0.0296
ACCTTAGG	-0.241
AGATACCG	0.162
ACGTAGGC	-0.162
CTTACATA	0.0227
CAATCGTC	-0.14
ACGAAGGG	-0.264
CCGTCACA	-0.148
TACTTTCA	0.0515
AAAGCTCT	-0.141
AACCTATC	-0.142
CTTGGCTC	-0.17
AGCGGAGG	-0.193
GACCGATC	0.0491
ATTGAATG	0.138
AAGGTCCA	-0.0653
GTGTTGAA	-0.0251
AGAAGCCC	0.0144
CATAGGTC	-0.0636
GGGCCCCA	-0.298
ATCCTGCA	-0.1
AGTCCTCA	-0.0656
CAAGTACG	-0.168
CGCAGACG	0.0631

Sequence	PBM E-score
CAGACGAG	-0.0786
CGCTTAAC	-0.001
CCGTATCG	-0.183
CCGCGCAG	0.0631
GGGCCACA	-0.227
ATTCGCGC	0.0265
CCGTCGTC	-0.0939
AGCCGATA	0.142
GGTCTGAA	0.119
CTTGACTC	-0.197
GCTGTGGA	-0.0283
AAATGGCC	-0.183
ACAGACGG	-0.11
ACTTACGG	0.219
ATGAGGCC	-0.0547
CCCGTGAA	-0.106
AGGCTTCC	0.1
GAATCGCC	-0.0215
TTGGTAAA	0.146
CGGATGTA	0.285
AGGAGGCA	-0.209
GTAGAAAA	0.193
TGATCTAA	0.103
AACATCAC	-0.121
GGAATCGA	0.0553

Sequence	PBM E-score
TTACAGAA	-0.00633
GTATCACA	0.108
ATACACAC	0.0704
AGTCGTGG	-0.191
GAACAAAC	0.261
CAAAGGGA	-0.166
TGCGTTAA	0.0383
ACGGCGGA	0.094
CCGGGCCC	0.262
AGTACCAA	0.144
AGCACGTC	-0.0289
CACGGTTA	0.218
CCATAGAA	0.0492
CAAATTCC	0.181
AAATGTAT	0.169
CAAGCCGA	0.324
GGTCTTCA	-0.157
AACATTAT	0.177
CAGATGTA	-0.231
AAGCACAG	0.0653
AAAGCAAC	0.0724
AACAGTCG	0.0243
GGGGATAA	-0.116
CCCTTCGC	-0.218
ACTCCGGG	0.265

Sequence	PBM E-score
TCTAGCCA	-0.0838
ACAGTATG	-0.0597
AGTCCACA	-0.103
CACTTCCA	-0.0121
AGCGCCTC	-0.0318
CGGGTTCA	0.278
ACCCCACT	-0.205
CATATAAC	0.115
ATCAACGA	0.117
TATAATCA	0.198
CAGGACAC	-0.0491
AACAACCG	0.247
AAATATAT	0.305
TGCTGACA	-0.0689
CGCAAAAA	0.225
CAAGAATC	0.138
GCCAAGTA	-0.199
CGCTACTA	0.0983
ACATTGCG	-0.138
AACACCCA	-0.199
GCACGAAA	0.0777
GCGCTGTA	-0.115
ATTCGTGA	-0.0319
GAGTGCCA	-0.298
ATAGAGAT	0.0561

Sequence	PBM E-score
GCAGCCGA	0.221
ATCATATC	0.139
GACAATGA	-0.0278
AGAGAGAA	-0.111
AAAAGGCC	-0.0759
CTGATGGA	-0.14
CAATAAAA	0.0818
CCGGCTGC	0.331
AATCTCTG	-0.102
AAAGCTTT	0.237
AAAACAGT	0.197
ACAGCCCG	0.0446
ATAGTCTC	0.0321
AGTACGGA	0.158
ACTCAGAC	-0.00195
AGTCTGAA	-0.162
ACGCCTTG	-0.119
CCGTTATA	0.151
ACACAGAG	-0.0748
AGGACAAT	-0.0447
GATAGCAA	0.123
ATGCATTA	0.0989
ACTGAGCC	0.142
CTGTAGAA	0.0848
AGAGGAAA	0.191

Sequence	PBM E-score
GAGTCAGA	-0.0741
ACTAACAG	0.045
AACTCCGA	0.325
AAAAACGG	0.183
CCAATTAA	0.0256
AGTGTTAA	0.213
ACAATCCG	0.193
GGTAAAAC	0.05
ATGGAGGA	0.1
GAGGCCTA	-0.155
AGGGCGCA	-0.225
CTGAGCGA	0.02
CACGTATC	-0.167
CAGGGTCA	-0.288
CAGAGAGA	-0.123
ATAACTGG	-0.0953
GAAGGAGA	-0.0715
AAATCCAA	-0.0273
GGAGAACA	-0.0373
CAAACCTG	-0.11
CTAGCAAG	-0.206
ACCACCAC	-0.159
AGCTAAGG	-0.178
AGAAATTC	0.077
AAATCGCA	0.0999

Sequence	PBM E-score
GCAGATTA	0.0406
CAGTGCCG	0.22
AATTATTC	0.181
CGGGGTAG	-0.126
CAAGGTGG	-0.0765
CACAACGA	0.115
CCTTGTGA	-0.0408
CGCTGCCC	-0.121
CGGTTTCA	0.137
GACTAGAA	-0.023
ATCGGCGG	0.246
CTTGGGTA	-0.087
CGGACCCC	0.0811
ACATCAGC	-0.0768
GACTCACC	-0.216
GCCACTCA	-0.0368
TATAGGAA	-0.0613
CTTCGAAC	0.192
GTATCAGA	0.0461
GGACTGCA	-0.141
CAGTTGTC	-0.00115
AGCCTGCG	-0.175
ATGTCAAT	0.122
GTCCCCAC	-0.359
GAGTGGTA	-0.0683

Taken from above:
For PBM E-score, CAGTTGTC shows -0.00115
For PBM E-score, CGGTTTCA shows 0.137
For PBM E-score, GACTCACC shows -0.216

The list continues.

Sequence	PBM E-score
AATCGAAC	-0.112
ACGTGCCT	-0.058
ATTTGGGA	0.0419
AAACTAAT	0.3
GTTACAAC	0.126
ATCTTCGG	0.35
ATCCCATC	-0.19
ATCAAAGA	0.0474
GATTCGGC	0.364
CCCTAGAG	-0.0187
GCCTATCC	-0.156
TAACGACA	-0.0182
GTAGCTCA	0.0156
AGGATGGA	0.0163
AGTACCCC	-0.267
ATTGCAAT	0.126
ATCGACAA	0.185
GGATAACA	0.0419
ACGTTCAA	0.0105
